Measured values taken from PMC9707766.
Results are given in words; binding and its absence hold for the method and conditions named. Binding seen in cells or lysates may run through a third protein. Some results given as binding are weak or reduced against the parent protein; the word gives no strength.

By UniProt entry, the sequences of proteins in these tests, tags left out.
UniProt Q15388: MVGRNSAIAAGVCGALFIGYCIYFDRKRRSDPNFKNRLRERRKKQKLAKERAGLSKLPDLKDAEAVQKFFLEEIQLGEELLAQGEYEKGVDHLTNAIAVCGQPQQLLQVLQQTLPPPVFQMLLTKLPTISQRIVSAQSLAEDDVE

Target: T1, ATP13A2-Halo (human) (UniProt Q9NQ11)
T1 sequence: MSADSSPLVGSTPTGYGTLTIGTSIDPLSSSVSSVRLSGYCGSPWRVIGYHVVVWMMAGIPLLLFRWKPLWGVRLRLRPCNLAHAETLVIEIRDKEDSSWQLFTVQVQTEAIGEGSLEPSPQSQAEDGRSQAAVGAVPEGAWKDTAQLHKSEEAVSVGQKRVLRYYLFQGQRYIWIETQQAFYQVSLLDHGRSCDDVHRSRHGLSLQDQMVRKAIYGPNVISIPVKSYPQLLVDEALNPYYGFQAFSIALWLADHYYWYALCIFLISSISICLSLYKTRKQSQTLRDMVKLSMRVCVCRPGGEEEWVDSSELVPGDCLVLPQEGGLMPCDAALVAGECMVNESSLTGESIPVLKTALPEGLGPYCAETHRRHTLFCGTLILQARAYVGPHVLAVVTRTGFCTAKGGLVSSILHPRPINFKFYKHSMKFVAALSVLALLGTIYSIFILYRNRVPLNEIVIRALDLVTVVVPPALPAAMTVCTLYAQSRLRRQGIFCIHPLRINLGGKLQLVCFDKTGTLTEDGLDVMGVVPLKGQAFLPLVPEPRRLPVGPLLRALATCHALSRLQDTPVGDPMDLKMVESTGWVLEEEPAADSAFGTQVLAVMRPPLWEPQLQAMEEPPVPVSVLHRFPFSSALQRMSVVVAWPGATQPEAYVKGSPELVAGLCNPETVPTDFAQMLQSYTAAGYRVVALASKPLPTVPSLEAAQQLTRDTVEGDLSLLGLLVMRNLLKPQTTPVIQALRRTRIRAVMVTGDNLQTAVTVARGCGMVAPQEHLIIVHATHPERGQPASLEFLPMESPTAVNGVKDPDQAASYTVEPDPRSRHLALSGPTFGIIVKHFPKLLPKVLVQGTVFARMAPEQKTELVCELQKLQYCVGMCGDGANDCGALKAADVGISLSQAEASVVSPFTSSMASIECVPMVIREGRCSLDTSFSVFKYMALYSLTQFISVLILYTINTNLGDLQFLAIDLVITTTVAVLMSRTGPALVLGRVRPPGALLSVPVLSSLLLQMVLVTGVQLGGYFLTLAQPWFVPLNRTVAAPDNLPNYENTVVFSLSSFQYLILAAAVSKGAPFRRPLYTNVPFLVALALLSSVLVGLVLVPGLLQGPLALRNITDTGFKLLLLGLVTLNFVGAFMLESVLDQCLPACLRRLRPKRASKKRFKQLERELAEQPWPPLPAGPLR
Assay: co-IP; lysate of HeLa cells stably expressing ATP13A2-Halo and transfected with mCherry-TOM20-N-10; 20 mM HEPES pH 7.5, 0.15 M NaCl, 0.5% Triton X-100; anti-ATP13A2 antibody or normal IgG overnight at 4°C, Dynabeads Protein G, five washes with 0.1% Triton X-100; western blotting

- binding: binds
Substance: mCherry-TOM20-N (from UniProt Q15388 1-145)
